The values that follow are results of earlier work, collected in patent US20030130799A1, “Structure/properties correlation with membrane affinity profile” (priority 2001, published 2003).

For this series the following is noted: known ADME properties of the parent compound; cited from earlier work.

As for `CC(C)NCC(O)COc1ccc(CC(N)=O)cc1` (stereo not shown) [atenolol], the CL was 0.140 L/min.
